# Experimental data taken from PubChem BioAssay AID1347423 (Functional Genomics Laboratory (NCATS/FGL), 2020).
# The campaign covered roughly 52,000 sequences. About 210 (0.4%) were called active.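 Rule for the calls: active = gene whose silencing raises cell survival under the drug, median off-target-corrected z-score across its silencing RNAs 2 or more; inactive = the rest.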 This is one part of the list.
# Assay: Resistance to Poly (ADP-Ribose) Polymerase inhibitor: Gene Identification via Genome-wide siRNA Screen
# Conditions: mouse BRCA2 R2336H ES cells, olaparib, CellTiter-Glo viability; stronger effect = higher value
# How it was run: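 Genome-wide siRNA screen (3 siRNAs/gene, 20 nM) in mouse ES cells carrying hypomorphic BRCA2 R2336H; olaparib 500 nM added 48 h post-transfection, CellTiter-Glo viability 72 h later. Normalized to plate-median negative control; MAD z-scores, gene median, seed-adjusted.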
row,Sequence,z-score
1,CCCAGGUGAGACCUUUACCTT against 1600019O04Rik,inactive: 1.34
2,GGUAGUGGAGACAGAGAAGTT against Rasgrf1,inactive: -1.29
3,GGCUUUGCUACUUGGGAUATT against 2810046M22Rik,inactive: -1.31
4,GGAAAGAAGCGAAUUACACTT against 1110034B05Rik,inactive: -1.55
5,GGAAGAACUAGAAGAAAAUTT against Vdp,inactive: 0.336
6,CCUUGAUGGUAAAUACUCATT against V1rh3,inactive: -1.27
7,GGCAUUGCACAAAAUCUAATT against BC026439,inactive: 0.359
8,GGACACAUGGAUGGAAUGUTT against Cd5l,inactive: 2.12
9,GGACAAUGCUAAUGAGACCTT against Gcet2,inactive: -0.588
10,GCGAGUAGGACCAGUGAAATT against Xpo1,inactive: -2.67
11,GGCAUUAGAGACAGACUGGTT against Phca,inactive: -0.346
12,GGCCUCUUAUAUAGAAUAATT against Polr3f,inactive: -0.917
13,GGUGAGACAUUUCAAGAAATT against Ndufb2,inactive: 1.66
14,GGAGACGUGGGAAAAGCUATT against Gucy1b2,inactive: 0.737
15,GGCUUAUCGAUCGACAGUUTT against Nup155,inactive: -1.7
16,GGAAAGUUGAAGAUUAAAGTT against 2610207I16Rik,inactive: 0.783
17,GGAGAAUGACCAGCUGAUCTT against Deb1,inactive: 0.39
18,GGAUCAUUUCCUAGGACUGTT against Cox15,inactive: -0.164
19,GGAAGCUUCAAGCCAUGGUTT against Creb3,inactive: 1.14
20,GGAUGAAGAUACAGAGGUATT against 4933400C05Rik,inactive: -2.47
21,GCAACGCAGUACUCUACCCTT against Tenc1,inactive: 0.502
22,GGCUAUCACACAGCAUAGATT against Rdh7,inactive: 0.208
23,GCCUUAGGUUGAUAGGAGGTT against Tas2r110,inactive: -0.159
24,GGUUUAUUGACCAUCUAAUTT against Ttc4,inactive: 0.0667
25,GCUCGCCUGCAUUUCAUCATT against Pank4,inactive: 1.53
26,CCACGGUCUCUUAUUUAUGTT against Pim3,inactive: 0.219

row,Sequence,z-score
1,GGUCGAGACUCCAUCAUAATT against 8430408H12Rik,inactive: -1.81
2,CCUACACAACCGUGUUCAATT against Gtf3a,inactive: -0.792
3,GCACCCUUGAGAAAUCCAATT against Cfdp1,inactive: 0.385
4,GGAACUAACAUCACACCGATT against Lmtn,inactive: 2.24
5,GGAGACCUUUGCUCAUCUCTT against Hbb-bh1,inactive: -0.464
6,GCUACGUUUUUUACCUCCATT against Bak1,inactive: -0.165
7,GGUUAACAUCACUCUGUCUTT against Ntng1,inactive: -2.37
8,GCGAGUGGACCUGUUUUACTT against Btc,inactive: -0.444
9,GGCUGCUAACAAAGACAACTT against Ift172,inactive: -0.0185
10,GGUUCUGUGUAUGGAUUAUTT against Fzd5,inactive: 0.754
11,GUCAGUGGGCUUCUCAGAUTT against Pxmp2,inactive: 0.975
12,GCCUAUGUAAAUAGUGCUGTT against Mt3,inactive: -0.0187
13,GGAAGACAUAAUAAUAGAGTT against Rad17,inactive: -0.164
14,CCACCUGUCUUGAAAAUUGTT against Edg5,inactive: 1.49
15,GCGAACCAAACUUGCAUAUTT against D6Ertd365e,inactive: -1.33
16,GGAAAGUGUGUUCAUUAGUTT against Pla2g2d,inactive: -0.775
17,GCCGUUUUAUGUGGCAGAATT against Slc35d3,inactive: -1.67
18,GGAAACAUGGCAUCAAGACTT against 1110059G10Rik,inactive: 1.63
19,GCCGCUUAGUUCUGUUUUATT against Clcn5,inactive: 1.06
20,CCCUCUGGUUCUAGCUGUUTT against 2600003E23Rik,inactive: -0.49
21,GGAAAGAAUUGGAUGACUATT against BC051070,inactive: -0.225
22,GCUCAUUUUAGGCAAAAGATT against A630065K24Rik,inactive: 0.0647
23,GGCCAUGGAAGCUGUUGCUTT against Pgam2,inactive: 0.16
24,CCACUGUCCCUAAGGUACUTT against Olfr161,inactive: 1.98
25,GGAUUCAUGAUUAUCUUUCTT against Olfr790,inactive: 0.00848
26,GGAGGCACACCUGAAACAUTT against Cacna2d3,inactive: 1.04

# Individual results from the entries so far:
# Value for GUCAGUGGGCUUCUCAGAUTT against Pxmp2 under z-score: inactive: 0.975
# Value for GGAAAGAAUUGGAUGACUATT against BC051070 under z-score: inactive: -0.225
